These are yes or no findings as the source states them, for the method shown. In cells and extracts the contact can be indirect. Some results given as binding are weak or reduced against the parent protein; the word gives no strength.
Target: T1, CYTIP (cytohesin interacting protein), endogenous in mature dendritic cells (human (endogenous in monocyte derived dendritic cells)) (UniProt O60759)
T1 sequence: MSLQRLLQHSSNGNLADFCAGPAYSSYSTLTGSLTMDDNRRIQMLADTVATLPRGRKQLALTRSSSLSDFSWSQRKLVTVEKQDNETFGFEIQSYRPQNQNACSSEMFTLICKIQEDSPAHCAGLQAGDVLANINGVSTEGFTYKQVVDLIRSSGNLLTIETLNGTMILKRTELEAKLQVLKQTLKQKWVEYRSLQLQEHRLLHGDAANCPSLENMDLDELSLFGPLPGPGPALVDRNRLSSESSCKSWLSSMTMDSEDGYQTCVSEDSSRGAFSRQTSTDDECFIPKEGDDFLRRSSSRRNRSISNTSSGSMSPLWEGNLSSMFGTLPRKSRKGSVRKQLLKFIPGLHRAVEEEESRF
Assay: co-IP; 2 mg lysate of mature dendritic cells in modified RIPA buffer; rat anti CYTIP antibody 1A3, 4 h at 4 C, Protein L agarose overnight at 4 C; Western blot for SOCS-1

The chains behind the UniProt entries cited, without tags or fusion partners.
UniProt O15524: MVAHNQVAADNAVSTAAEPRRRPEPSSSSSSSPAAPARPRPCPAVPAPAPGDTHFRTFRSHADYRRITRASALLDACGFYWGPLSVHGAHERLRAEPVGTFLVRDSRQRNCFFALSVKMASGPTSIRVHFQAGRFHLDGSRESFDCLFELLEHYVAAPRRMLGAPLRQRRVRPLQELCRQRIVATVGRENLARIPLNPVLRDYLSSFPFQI

Suppressor of cytokine signaling-1 (SOCS-1), endogenous in mature dendritic cells (from UniProt O15524 1-211)
binding: binds

— paper PMC3585367
